# Data published in PubChem BioAssay AID540256 (National Center for Advancing Translational Sciences (NCATS), 2011).
# Hit rate of the full screen: of about 300,000 compounds, about 3,700 (1.2%) were called active. Inconclusive means that the source gave no clear call. Such entries were picked first, then a sample of the others. Calls come from the whole dose curve; tested in HEK293 cells. Potencies of inconclusive entries are doubtful fits and often do not repeat.
# Assay: qHTS for Inhibitors of binding or entry into cells for Lassa Virus; note: nearly all actives have a fitted effect of over 50% in size
# Settings: Lassa virus pseudotype entry inhibition, cell reporter; activity change, negative = inhibition: at 37.9 µM (top of the series) unless noted
# % is set by controls: 0 for no effect and ±100 for the full control effect; potency is the fitted concentration of half-maximal effect.
Compound,Potency,"activity change, negative = inhibition"
Fc1ccccc1Nc1nc2c(s1)CCc1ccccc1-2,"inconclusive: 0.366 µM [activator, full curve]",
O=C(NC(=S)Nc1cccc(Cl)c1N1CCCCC1)c1cccs1,"inconclusive: 29.1 µM [inhibitor, single point]",
Cc1nc(CN2CCN(C(=O)NC3(c4ccccc4)CC3)CC2)cs1,,inactive: 1.91%
COCCN(C(=O)CNC(=O)c1ccco1)C(C(=O)NC1CCCCC1)c1cccs1 (centres undefined),"inconclusive: 35.5 µM [activator, partial curve, poor fit]",
Cc1c(C(=O)Nc2nc3ccccc3[nH]2)oc2c(Cl)cccc12,"inconclusive: 11.2 µM [activator, single point]",
C#CCn1c2ccccc2c2nc3ccccc3nc21,"inconclusive: 15.8 µM [activator, single point]",
COc1cccc(NC(=O)Nc2nc(-c3ccc(OC)c(OC)c3)cs2)c1,"inconclusive: 1.58 µM [inhibitor, full curve, poor fit]",
CCc1nnc(NC(=O)CSc2ncc(-c3ccccc3)n2C)s1,,inactive: -1.79%
O=C(Nc1ccccc1C(=O)O)c1ccc(NC(=O)C2CCCCC2)cc1,,inactive: -1.18%
CC(=O)c1ccc(N2C(=O)[C@@H]3[C@H](C2=O)[C@H]2c4ccccc4C=NN2[C@@H]3C(C)=O)cc1,"inconclusive: 35.5 µM [inhibitor, single point]",
COc1ccc(NC(=O)NCc2c(-n3cccc3)sc3c2CCCC3)c(OC)c1,,inactive: -4.35% [at 46.1 µM]
COc1ccc(O)c(/C=C(\C#N)C(=O)Nc2cccnc2)c1,"inconclusive: 8.91 µM [activator, partial curve]",
COc1ccc(CN2CCN(C(=O)c3ccc(S(=O)(=O)N4CCCCCC4)cc3)CC2)cc1,"inconclusive: 11.2 µM [inhibitor, partial curve, poor fit]",
Cc1ccc(CC(=O)NC(C)CCc2ccccc2)cc1 (centres undefined),"inconclusive: 10 µM [inhibitor, single point]",
CCOc1ccc(CCNC(=O)CCCc2nnc3n(C)c(=O)c4sccc4n23)cc1OCC,,inactive: 13% [at 46.1 µM]
Cc1c(C(=O)OC2CCC(C)CC2)[nH]c2c1C(=O)CC(c1ccccc1Cl)C2 (centres undefined),,inactive: 2.82% [at 46.1 µM]
CCOC(=O)c1noc2ncn(Cc3cccc(C#N)c3)c(=O)c12,,inactive: 5.02% [at 46.1 µM]
O=C(Nc1ccc(Cl)cc1)c1cc(S(=O)(=O)N2CCCc3ccccc32)ccc1F,"inconclusive: 35.5 µM [inhibitor, single point]",
Cc1ccc(-c2nnc(Nc3ccc(O)cc3)c3ccccc23)cc1S(=O)(=O)NCC1CCCO1 (centres undefined),,inactive: -24.3% [at 46.1 µM]
CN(c1ccc(OCCOc2ccccc2Cl)cc1)S(=O)(=O)c1ccccc1,"inconclusive: 12.6 µM [inhibitor, partial curve, poor fit]",
CNS(=O)(=O)c1cccc(C(=O)OCC(=O)C23CC4CC(CC(C4)C2)C3)c1,"inconclusive: 35.5 µM [inhibitor, single point]",
CCC(=O)NC(c1cccc([N+](=O)[O-])c1)c1c(OC(C)=O)ccc2ccccc12 (centres undefined),"inconclusive: 35.5 µM [inhibitor, single point]",

Compound,Potency,"activity change, negative = inhibition"
COc1cccc(NC(=O)c2ccc(CNS(=O)(=O)c3ccc4c(c3)C(C)(C)C(=O)N4C)cc2)c1,"inconclusive: 35.5 µM [inhibitor, single point]",
Cc1c(Cl)cccc1NC(=O)CSc1cc(-c2ccccc2)ncn1,,inactive: 1.19% [at 46.1 µM]
Cc1nc(SCC(=O)Nc2ccc(F)cc2)c(C#N)c(C)c1CC(=O)c1ccc(Br)cc1,active: 11.2 µM,
CN1C(=O)/C(=C\c2ccncc2)SC1=Nc1ccccc1,"inconclusive: 1.26 µM [inhibitor, full curve]",
O=C(COc1ccccc1-c1ccccc1)N/N=C/c1cccc2ccccc12,"inconclusive: 0.092 µM [inhibitor, full curve, poor fit]",
COc1ccc(CNC(=O)Cn2ccc3cc(S(=O)(=O)N4CCCCCC4)ccc32)c(OC)c1,"inconclusive: 2.82 µM [inhibitor, single point]",
Cc1ccc(C)c(N2CCN(C(=O)COc3cc(=O)n(C)c4ccccc34)CC2)c1,active: 18.3 µM,
Cc1ccc(NC(=O)c2cc(-c3ccccc3)nn2-c2ccccc2)cc1,"inconclusive: 14.1 µM [inhibitor, single point]",
Cc1cc2ccccc2n1-c1ccc(C(=O)N2CCC(C(=O)NCc3ccc(F)cc3)CC2)s1,"inconclusive: 35.5 µM [inhibitor, single point]",
COC(=O)c1c(SCC(=O)Nc2ccccc2OC)[nH]c2ccccc2c1=O,,inactive: 16.4% [at 46.1 µM]
CC1CCCN(c2nc(N(C)c3ccccc3)nc(N)c2[N+](=O)[O-])C1 (centres undefined),,inactive: -20.6%
Cc1ccc(C(=O)Oc2ccc3c(c2)ncn3C)cc1,,inactive: 9.98%
O=c1c2ccccc2nc(/C=C/c2ccc(Br)cc2)n1CCO,"inconclusive: 11.2 µM [inhibitor, single point]",
COc1ccc(Oc2nc3c(c(=O)n(Cc4ccccc4Cl)c(=O)n3C)n2C)cc1,"inconclusive: 22.4 µM [activator, single point]",
COc1ccccc1-c1nnc(SCc2nc3ccccc3s2)n1C,,inactive: -8.39%
Cc1ccc(C)c(N(C(=O)c2nsc(Cl)c2Cl)C(C(=O)NC2CCCC2)c2ccc(O)cc2)c1 (centres undefined),"inconclusive: 2.82 µM [inhibitor, full curve]",
CCc1ccc(NC(=O)CNCc2ccc(OC)c(OC)c2)cc1,"inconclusive: 3.55 µM [inhibitor, single point]",
Cc1cc(C)c(S(=O)(=O)Nc2cccc(-c3cn4ccccc4n3)c2)c(C)c1,"inconclusive: 35.5 µM [inhibitor, single point]",
O=C(Nc1ccc(F)cc1)N1CCOCC1,"inconclusive: 0.73 µM [activator, full curve, poor fit]",
Cc1ccc(C)c(CN2C(=O)c3ccccc3S(=O)c3ccc(C(=O)NCc4ccco4)cc32)c1 (centres undefined),"inconclusive: 11.2 µM [inhibitor, partial curve, poor fit]",
COc1ccc(C(=O)CCC(=O)NCCc2ccccc2F)cc1,,inactive: 5.04%
Cc1ccc2c(c1)c(C)cc[n+]2Cc1ccccc1,"inconclusive: 17.8 µM [inhibitor, single point]",

# Two entries from above, set out differently.
Compound	Potency	activity change, negative = inhibition
Cc1ccc(-c2nnc(Nc3ccc(O)cc3)c3ccccc23)cc1S(=O)(=O)NCC1CCCO1 (centres undefined)		inactive: -24.3% [at 46.1 µM]
CN(c1ccc(OCCOc2ccccc2Cl)cc1)S(=O)(=O)c1ccccc1	inconclusive: 12.6 µM [inhibitor, partial curve, poor fit]	
